Results are given in words; binding and its absence hold for the method and conditions named.
How the values were obtained:
[1] = target: His-Crc (Pseudomonas aeruginosa catabolite repression control protein Crc, N-terminal His6 tag, from plasmid pETM14lic-His6Crc) (Pseudomonas aeruginosa PAO1) (UniProt Q51380); assay: co-purification by Ni-affinity chromatography, then SEC; His-Crc held on Ni resin from E. coli Rosetta (DE3) lysate (50 mM NaH2PO4 pH 8.0, 300 mM NaCl, 10 mM imidazole), then Superdex-75 SEC (50 mM NaH2PO4 pH 8.0, 150 mM NaCl); Hfq looked for by mass spectrometry and western blot; mock control strain without Crc
[2] = target: His-Crc (Pseudomonas aeruginosa Crc, His-tagged, from plasmid pME9670) (Pseudomonas aeruginosa) (UniProt Q51380); assay: co-purification by Ni-affinity chromatography; His-Crc held on Ni resin from P. aeruginosa PAO1(pME9670) lysate, one-step NAC; eluate on a Coomassie-stained SDS gel

Chains of the proteins cited; added tags and fusions are not shown.
UniProt P0A6X3: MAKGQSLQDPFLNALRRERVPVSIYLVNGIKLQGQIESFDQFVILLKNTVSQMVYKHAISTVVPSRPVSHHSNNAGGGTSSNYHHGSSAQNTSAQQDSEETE
UniProt Q9HUM0: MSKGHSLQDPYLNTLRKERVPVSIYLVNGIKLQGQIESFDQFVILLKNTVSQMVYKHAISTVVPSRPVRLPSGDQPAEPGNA

Substance | binding [1] | binding [2]
Escherichia coli RNA chaperone Hfq (from UniProt P0A6X3 1-102) | no binding | –
Hfq protein of Pseudomonas aeruginosa (from UniProt Q9HUM0 1-82) | – | no binding
